From article PMC5852209

Tests used:
PmDAM6 (Prunus mume) = target: T1, PmDAM6 (Prunus mume) (UniProt B9A1S9); experiment: two-hybrid; full length cDNAs in pGBKT7 bait vector and pGADT7 prey vector; each interaction analysis performed three times
T1 sequence: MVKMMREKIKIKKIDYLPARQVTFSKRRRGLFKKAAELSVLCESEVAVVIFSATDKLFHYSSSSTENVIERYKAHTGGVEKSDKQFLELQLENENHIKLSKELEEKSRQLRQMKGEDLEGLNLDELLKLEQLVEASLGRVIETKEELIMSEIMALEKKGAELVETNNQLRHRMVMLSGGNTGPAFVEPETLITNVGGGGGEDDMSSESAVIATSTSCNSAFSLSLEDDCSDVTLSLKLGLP

PmDAM1 (Prunus mume) = target: T2, PmDAM1 (Prunus mume) (UniProt G1UE19); experiment: as above
T2 sequence: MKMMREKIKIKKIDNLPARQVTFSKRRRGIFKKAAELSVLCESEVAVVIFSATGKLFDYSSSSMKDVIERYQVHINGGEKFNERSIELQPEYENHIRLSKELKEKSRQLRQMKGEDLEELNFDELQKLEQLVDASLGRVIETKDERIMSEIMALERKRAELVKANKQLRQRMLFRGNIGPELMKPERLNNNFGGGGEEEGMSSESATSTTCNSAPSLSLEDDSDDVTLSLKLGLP

[1] = target: T3, PmDAM2-YFP^N (Prunus mume) (UniProt G1UE20); experiment: split reporter; BiFC with split YFP (pCambia1300-YFP-C and pCambia1300-YFP-N), coexpression in leaves of Nicotiana benthamiana, confocal microscopy, YFP excited at 514 nm
T3 sequence: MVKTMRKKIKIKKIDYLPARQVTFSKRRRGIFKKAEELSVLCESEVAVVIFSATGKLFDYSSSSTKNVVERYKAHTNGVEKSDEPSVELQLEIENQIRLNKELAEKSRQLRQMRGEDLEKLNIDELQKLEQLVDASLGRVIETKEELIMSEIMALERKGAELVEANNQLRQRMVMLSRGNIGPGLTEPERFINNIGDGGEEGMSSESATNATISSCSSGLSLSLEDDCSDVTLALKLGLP

[2] = target: T4, PmDAM1-YFP^N (Prunus mume) (UniProt G1UE19); experiment: as above
T4 sequence: T2 sequence

[3] = target: T5, PmDAM6-YFP^C (Prunus mume) (UniProt B9A1S9); experiment: as above
T5 sequence: T1 sequence

[4] = target: T6, PmDAM4-YFP^C (Prunus mume) (UniProt G1UE22); experiment: as above
T6 sequence: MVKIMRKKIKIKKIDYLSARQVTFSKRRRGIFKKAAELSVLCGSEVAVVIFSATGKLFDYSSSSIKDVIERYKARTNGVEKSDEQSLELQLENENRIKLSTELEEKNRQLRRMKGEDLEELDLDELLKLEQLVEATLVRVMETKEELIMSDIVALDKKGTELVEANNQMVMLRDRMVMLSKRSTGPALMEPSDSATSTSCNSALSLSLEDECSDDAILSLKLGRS

binding [2] | binding [3] | Substance | also measured
 |  | PmCBF5 (Prunus mume) | binding (PmDAM6 (Prunus mume)): binds; binding (PmDAM1 (Prunus mume)): binds
binds |  | PmCBF5-YFP^C (Prunus mume) | binding [1]: no binding
 | binds | PmCBF5-YFP^N (Prunus mume) | binding [4]: no binding
no binding |  | PmCBF6-YFP^C (Prunus mume) | 
 | no binding | PmCBF6-YFP^N (Prunus mume) | 

Results are given in words; binding and its absence hold for the method and conditions named. For some assays here: A result given as binding can be weak or reduced; the word gives no strength. For some assays here: Binding seen in cells or lysates may run through a third protein. For some assays here: Tags and fused reporters may be left off the sequences shown.
